Results from paper PMC11046865.
These are yes or no findings as the source states them, for the method shown. In cells and extracts the contact can be indirect. A result given as binding can be weak or reduced; the word gives no strength. For some of these results: Where a sequence is shown, tags or fusion partners need not be part of it. Values belong to the molecule of their own block, whether it stands above or below them.

Sequences of proteins named here, by UniProt entry; tags and fusion partners are left off. A change or cut given only in a name is not applied to a line headed by its entry.
UniProt Q9NQB0: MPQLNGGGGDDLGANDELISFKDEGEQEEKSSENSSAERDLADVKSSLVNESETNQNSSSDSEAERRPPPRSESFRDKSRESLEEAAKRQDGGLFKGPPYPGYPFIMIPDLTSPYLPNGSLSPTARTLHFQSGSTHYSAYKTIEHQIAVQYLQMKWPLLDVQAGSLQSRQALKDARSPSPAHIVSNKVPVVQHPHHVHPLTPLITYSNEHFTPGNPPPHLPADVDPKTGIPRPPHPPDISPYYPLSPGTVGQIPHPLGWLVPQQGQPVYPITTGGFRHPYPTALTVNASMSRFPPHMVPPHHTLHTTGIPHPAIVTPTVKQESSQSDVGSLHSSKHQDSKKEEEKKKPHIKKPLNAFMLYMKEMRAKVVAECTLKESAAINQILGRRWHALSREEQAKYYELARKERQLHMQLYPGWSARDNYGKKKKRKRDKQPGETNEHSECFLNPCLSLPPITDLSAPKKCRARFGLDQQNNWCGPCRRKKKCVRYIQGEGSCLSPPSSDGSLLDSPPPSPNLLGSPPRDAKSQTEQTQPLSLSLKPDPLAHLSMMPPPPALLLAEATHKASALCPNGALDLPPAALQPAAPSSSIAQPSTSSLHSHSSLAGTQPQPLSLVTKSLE

What was measured:
[1] = target: TCF7L2 (endogenous, HCT116) (human (endogenous in HCT116)) (UniProt Q9NQB0); test: co-IP; endogenous proteins in HCT116 cells; β-Cat and TCF7L2 IPs as positive controls; western blotting
[2] = target: HA-tagged TCF7L2 (full length); test: co-IP; TCF7L2 and PIASy-myc co-transfected in HEK293FT with empty vector or PAX1 (HA-PAX1 0, 1, 2 μg; or flag-tagged PAX1 WT or mutants); IP of TCF7L2 with M2 beads (flag-TCF7L2) or anti-HA antibody (HA-TCF7L2); PIASy detected with anti-myc
[3] = target: flag-tagged TCF7L2; test: as above
[4] = target: HA-tagged TCF7L2 (full length); test: co-IP; expression plasmids transfected alone or together into HEK293FT cells; lysis in 20 mM Tris pH 7.5, 1 mM EDTA, 1 mM EGTA, 150 mM NaCl, 1% Triton X-100; M2 (anti-flag) beads or antibody-bound dynabeads overnight at 4 °C; western blotting

binding [1]: binds
Molecule: PAX1 (endogenous, HCT116) (from UniProt P15863-1 1-534)

binding [2]: binds | binding [3]: binds | binding [4]: binds
B1: Myc-tagged PIASy (enzyme, UniProt Q8N2W9 1-510)
chain: MAAELVEAKNMVMSFRVSDLQMLLGFVGRSKSGLKHELVTRALQLVQFDCSPELFKKIKELYETRYAKKNSEPAPQPHRPLDPLTMHSTYDRAGAVPRTPLAGPNIDYPVLYGKYLNGLGRLPAKTLKPEVRLVKLPFFNMLDELLKPTELVPQNNEKLQESPCIFALTPRQVELIRNSRELQPGVKAVQVVLRICYSDTSCPQEDQYPPNIAVKVNHSYCSVPGYYPSNKPGVEPKRPCRPINLTHLMYLSSATNRITVTWGNYGKSYSVALYLVRQLTSSELLQRLKTIGVKHPELCKALVKEKLRLDPDSEIATTGVRVSLICPLVKMRLSVPCRAETCAHLQCFDAVFYLQMNEKKPTWMCPVCDKPAPYDQLIIDGLLSKILSECEDADEIEYLVDGSWCPIRAEKERSCSPQGAILVLGPSDANGLLPAPSVNGSGALGSTGGGGPVGSMENGKPGADVVDLTLDSSSSSEDEEEEEEEEEDEDEEGPRPKRRCPFQKGLVPAC
